Laboratory results: patent US20190365717A1, “TREATING PATHOLOGICAL CONDITIONS BY DIRECT AND INDIRECT TARGETING OF SIRPA-CD47 INTERACTION” (STICHTING HET NEDERLANDS KANKER INSTITUUT-ANTONI VAN …, priority 2017, published 2019)

Test system: CD47 in A375 melanoma cells
Assay: One-dimensional isoelectric focusing of HA-tagged CD47 immunoprecipitates
Type: cell-based, human
Settings: 10 μM SEN177 for 16 h

SMILES: Cn1cnnc1C1CCN(c2ncccc2-c2ccc(F)nc2)CC1 [SEN177]
- pI of CD47 molecules isolated from QPCTL-knockout cells (A375 QPCTL-knockout cells): did not affect
- pI of CD47 present in wild-type cells (A375 wild-type cells): increased
